From US20250320401A1, “CORROSION INHIBITOR AND RELATED METHODS OF INHIBITING THE CORROSION OF METAL SURFACES” (Schlumberger Technology Corporation, priority 2024, published 2025)

Test: Corrosion rate by weight loss analysis of steel coupons in inhibited hydrochloric acid
Conditions: HS80 low carbon steel, 80° C., one hour exposure, inhibitor 3.57 mmol; for CR, mm/year in 4M HCl: 100 ml 4M HCl; for CR, mm/year in 25% HCl: 100 ml 25% HCl
Text: The corrosion rates were studied by weight loss analysis. The low carbon steel HS80 tubing were cut into coupons of 29±3 cm^2 surface area using a water cooled band saw to minimize any changes in the properties of the metal that may result from heating. After cutting, the coupons were stamped for identification, glass bead blasted and cleaned in acetone to remove any residue from the machining process. The coupons were then dried, placed in plastic bags and stored in airtight jars to prevent contact with humidity or airborne contaminants. The initial surface area of each test coupon was determined by accurate (to four decimal places) measurement of its geometric dimensions.
Throughout the exposure period, isothermal conditions are maintained (for the present study, the temperature was maintained at 80° C.) and the inhibited acid is continuously stirred using a magnetic stirrer bar. Since the tests were designed to simulate oil well acid stimulation, no effort was made to remove dissolved oxygen from the acid. However, an argon blanket was used to stop any additional intrusion of oxygen during the one hour exposure period. Following each test, the coupons were rinsed in acetone and scrubbed with soap and water to remove residual inhibitor and corrosion deposits. A final rinse in acetone and a brief drying period at ambient temperature was completed prior to re-weighing and calculation of weight loss and corrosion rate. The coupons were examined visually for localized corrosion, observed as pits or edge attack.

Structure (SMILES)	CR, mm/year in 4M HCl	CR, mm/year in 25% HCl
CCOC(CCO)OCC [3,3-diethoxy-1-propanol]	56 ± 3 mm/year	53 ± 3 mm/year
O=CCCO [3-HPA, 3-Hydroxypropionaldehyde]	79 ± 4 mm/year	69 ± 4 mm/year
C=CC=O [Acrolein, reference compound]	37 ± 2 mm/year	52 ± 3 mm/year
C#CCO [Propargyl alcohol, reference compound]	13 ± 1 mm/year	35 ± 2 mm/year
